Assay results: the supplement of paper PMC10849652
The list shows a part of the results.

Chains of the proteins cited; added tags and fusions are not shown. Lines headed by an entry give the natural chain unless they say otherwise; changes in a name come on top.
UniProt O43324: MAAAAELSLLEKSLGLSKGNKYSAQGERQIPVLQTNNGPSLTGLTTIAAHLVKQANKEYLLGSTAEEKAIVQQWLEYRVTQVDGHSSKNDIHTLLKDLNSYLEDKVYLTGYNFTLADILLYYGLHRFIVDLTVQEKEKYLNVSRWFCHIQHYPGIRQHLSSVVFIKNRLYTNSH
UniProt Q9H8V3: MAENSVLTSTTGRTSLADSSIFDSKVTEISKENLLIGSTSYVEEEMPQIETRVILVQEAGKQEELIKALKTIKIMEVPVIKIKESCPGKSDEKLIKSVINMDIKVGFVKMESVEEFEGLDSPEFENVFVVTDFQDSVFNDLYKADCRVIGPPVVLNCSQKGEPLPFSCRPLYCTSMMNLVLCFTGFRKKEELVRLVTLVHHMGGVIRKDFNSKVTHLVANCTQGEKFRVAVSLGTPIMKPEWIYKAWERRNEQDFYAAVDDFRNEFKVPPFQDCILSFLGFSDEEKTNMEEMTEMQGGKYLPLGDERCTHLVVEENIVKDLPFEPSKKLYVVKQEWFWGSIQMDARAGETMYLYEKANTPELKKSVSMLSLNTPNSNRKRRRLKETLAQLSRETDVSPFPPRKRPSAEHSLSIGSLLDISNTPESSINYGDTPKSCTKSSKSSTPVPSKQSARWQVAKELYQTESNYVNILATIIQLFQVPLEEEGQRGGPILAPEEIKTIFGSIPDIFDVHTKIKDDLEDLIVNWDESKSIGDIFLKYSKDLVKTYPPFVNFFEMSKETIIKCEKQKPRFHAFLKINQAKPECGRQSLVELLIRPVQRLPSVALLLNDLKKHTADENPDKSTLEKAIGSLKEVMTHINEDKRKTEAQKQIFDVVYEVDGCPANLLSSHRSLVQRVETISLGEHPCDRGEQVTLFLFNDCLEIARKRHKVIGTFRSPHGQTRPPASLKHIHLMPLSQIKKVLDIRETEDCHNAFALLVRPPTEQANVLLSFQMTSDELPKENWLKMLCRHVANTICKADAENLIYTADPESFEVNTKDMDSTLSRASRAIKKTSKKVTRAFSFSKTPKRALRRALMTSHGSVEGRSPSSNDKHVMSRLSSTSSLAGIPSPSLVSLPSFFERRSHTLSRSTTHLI
UniProt Q5JPH6: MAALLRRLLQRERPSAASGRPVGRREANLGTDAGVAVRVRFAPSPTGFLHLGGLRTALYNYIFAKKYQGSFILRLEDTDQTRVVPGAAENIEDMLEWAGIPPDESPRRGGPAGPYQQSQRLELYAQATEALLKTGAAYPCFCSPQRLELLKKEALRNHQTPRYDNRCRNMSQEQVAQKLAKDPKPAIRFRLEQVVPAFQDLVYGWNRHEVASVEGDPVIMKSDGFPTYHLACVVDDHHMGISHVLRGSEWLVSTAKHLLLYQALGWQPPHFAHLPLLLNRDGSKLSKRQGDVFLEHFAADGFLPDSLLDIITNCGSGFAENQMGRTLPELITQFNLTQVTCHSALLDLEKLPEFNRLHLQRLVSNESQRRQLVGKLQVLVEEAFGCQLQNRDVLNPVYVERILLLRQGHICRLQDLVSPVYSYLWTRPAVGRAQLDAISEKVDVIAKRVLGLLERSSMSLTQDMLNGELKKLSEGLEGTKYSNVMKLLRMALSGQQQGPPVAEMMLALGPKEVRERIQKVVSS
UniProt Q9UNI6, whole entry, looked up: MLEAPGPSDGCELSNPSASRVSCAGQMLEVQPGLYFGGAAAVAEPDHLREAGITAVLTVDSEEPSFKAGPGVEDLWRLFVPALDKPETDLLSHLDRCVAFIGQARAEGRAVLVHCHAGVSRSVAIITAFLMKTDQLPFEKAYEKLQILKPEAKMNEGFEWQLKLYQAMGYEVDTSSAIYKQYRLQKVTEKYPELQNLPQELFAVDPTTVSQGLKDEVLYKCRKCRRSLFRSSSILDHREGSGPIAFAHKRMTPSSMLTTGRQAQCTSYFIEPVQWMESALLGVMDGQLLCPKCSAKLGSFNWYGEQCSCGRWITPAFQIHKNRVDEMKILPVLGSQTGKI
UniProt Q99956: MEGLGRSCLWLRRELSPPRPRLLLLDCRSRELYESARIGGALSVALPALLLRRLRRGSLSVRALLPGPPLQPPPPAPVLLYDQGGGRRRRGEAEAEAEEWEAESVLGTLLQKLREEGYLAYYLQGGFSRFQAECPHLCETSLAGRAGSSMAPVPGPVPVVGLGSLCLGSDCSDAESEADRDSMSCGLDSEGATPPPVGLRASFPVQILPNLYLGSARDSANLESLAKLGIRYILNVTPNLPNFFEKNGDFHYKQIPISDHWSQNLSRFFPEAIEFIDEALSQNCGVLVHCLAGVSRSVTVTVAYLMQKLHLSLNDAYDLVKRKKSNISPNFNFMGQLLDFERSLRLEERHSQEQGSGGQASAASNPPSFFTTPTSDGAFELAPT
UniProt Q9NZN4: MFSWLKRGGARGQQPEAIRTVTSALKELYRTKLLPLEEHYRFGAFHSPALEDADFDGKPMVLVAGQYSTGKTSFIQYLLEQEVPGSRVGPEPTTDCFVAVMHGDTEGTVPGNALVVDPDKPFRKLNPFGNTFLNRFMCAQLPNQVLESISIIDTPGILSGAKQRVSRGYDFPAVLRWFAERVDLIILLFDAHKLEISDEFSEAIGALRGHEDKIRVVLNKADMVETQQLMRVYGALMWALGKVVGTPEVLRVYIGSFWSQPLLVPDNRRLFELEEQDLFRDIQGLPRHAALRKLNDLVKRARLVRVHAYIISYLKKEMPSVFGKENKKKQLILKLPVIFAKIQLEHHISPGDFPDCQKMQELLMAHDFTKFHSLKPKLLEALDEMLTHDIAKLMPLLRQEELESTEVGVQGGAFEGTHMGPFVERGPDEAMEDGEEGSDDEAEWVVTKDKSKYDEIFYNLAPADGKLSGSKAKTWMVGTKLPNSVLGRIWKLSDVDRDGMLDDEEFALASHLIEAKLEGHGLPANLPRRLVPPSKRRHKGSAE
UniProt P0DPD7: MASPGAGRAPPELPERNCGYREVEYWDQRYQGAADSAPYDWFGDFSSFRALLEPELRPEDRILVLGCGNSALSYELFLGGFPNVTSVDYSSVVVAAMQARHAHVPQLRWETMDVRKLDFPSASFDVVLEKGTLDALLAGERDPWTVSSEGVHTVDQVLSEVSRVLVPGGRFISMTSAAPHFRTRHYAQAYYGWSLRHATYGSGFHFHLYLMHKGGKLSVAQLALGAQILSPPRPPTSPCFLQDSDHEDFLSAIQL
UniProt O00716: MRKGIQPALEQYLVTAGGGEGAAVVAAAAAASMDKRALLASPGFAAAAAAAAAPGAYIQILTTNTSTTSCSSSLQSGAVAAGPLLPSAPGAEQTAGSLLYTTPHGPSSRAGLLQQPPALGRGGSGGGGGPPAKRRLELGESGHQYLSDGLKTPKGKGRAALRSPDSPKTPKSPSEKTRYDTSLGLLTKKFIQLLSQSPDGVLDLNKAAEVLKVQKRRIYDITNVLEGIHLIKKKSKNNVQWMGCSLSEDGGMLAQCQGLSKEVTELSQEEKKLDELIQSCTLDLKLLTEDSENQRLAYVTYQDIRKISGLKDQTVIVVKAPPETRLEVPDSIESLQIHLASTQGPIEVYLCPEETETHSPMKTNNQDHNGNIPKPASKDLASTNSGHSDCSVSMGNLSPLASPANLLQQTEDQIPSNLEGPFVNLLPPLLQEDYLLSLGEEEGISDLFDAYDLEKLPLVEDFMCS
UniProt P57772: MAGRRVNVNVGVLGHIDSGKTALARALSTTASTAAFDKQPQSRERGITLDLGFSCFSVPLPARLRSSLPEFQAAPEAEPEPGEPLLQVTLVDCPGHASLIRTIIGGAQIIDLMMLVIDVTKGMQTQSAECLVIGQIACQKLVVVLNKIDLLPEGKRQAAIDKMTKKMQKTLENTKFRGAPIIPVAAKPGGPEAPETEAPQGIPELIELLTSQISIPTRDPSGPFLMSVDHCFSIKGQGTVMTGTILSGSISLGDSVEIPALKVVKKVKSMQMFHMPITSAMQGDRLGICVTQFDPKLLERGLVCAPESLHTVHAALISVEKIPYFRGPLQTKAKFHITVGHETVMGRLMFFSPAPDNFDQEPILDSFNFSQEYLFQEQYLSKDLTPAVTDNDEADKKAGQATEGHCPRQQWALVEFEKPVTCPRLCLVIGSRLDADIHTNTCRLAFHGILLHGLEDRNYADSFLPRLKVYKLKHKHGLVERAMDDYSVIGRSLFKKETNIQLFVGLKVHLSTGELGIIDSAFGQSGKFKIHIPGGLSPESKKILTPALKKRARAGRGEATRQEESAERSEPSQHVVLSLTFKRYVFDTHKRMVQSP
UniProt Q9Y295: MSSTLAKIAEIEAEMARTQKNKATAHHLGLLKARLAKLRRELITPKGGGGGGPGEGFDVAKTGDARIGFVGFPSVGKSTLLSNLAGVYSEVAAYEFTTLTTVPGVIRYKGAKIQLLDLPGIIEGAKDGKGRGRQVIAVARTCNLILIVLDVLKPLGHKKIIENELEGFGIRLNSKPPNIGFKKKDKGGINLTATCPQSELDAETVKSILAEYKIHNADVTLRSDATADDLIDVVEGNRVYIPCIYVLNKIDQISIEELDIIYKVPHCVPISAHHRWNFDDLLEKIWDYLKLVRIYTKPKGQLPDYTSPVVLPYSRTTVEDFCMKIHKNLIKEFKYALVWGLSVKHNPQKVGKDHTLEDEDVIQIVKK
UniProt Q6V1X1: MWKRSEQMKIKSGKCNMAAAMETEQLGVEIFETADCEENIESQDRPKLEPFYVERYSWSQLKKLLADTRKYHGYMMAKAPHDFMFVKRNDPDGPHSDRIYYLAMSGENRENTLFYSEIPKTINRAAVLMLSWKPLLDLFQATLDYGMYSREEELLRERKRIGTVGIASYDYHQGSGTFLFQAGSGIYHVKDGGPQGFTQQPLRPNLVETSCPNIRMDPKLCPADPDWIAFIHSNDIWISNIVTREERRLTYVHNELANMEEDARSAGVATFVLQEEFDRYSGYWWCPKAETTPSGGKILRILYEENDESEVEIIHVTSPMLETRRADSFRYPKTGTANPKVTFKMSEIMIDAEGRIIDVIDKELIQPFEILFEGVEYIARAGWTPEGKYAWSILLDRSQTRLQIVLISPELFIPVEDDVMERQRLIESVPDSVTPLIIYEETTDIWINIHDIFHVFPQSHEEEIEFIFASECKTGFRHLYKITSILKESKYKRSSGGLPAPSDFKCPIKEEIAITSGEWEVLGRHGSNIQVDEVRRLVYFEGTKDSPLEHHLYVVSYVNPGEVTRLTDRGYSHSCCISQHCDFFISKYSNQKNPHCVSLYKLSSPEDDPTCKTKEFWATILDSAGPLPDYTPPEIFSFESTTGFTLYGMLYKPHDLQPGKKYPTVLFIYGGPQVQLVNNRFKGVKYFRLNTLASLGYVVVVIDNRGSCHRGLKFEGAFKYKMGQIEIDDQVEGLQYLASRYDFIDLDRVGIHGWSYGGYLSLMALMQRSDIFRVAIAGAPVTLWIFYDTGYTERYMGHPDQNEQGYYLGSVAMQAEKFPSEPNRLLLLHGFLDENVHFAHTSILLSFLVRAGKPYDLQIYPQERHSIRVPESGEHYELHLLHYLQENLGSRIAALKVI
UniProt Q56P03: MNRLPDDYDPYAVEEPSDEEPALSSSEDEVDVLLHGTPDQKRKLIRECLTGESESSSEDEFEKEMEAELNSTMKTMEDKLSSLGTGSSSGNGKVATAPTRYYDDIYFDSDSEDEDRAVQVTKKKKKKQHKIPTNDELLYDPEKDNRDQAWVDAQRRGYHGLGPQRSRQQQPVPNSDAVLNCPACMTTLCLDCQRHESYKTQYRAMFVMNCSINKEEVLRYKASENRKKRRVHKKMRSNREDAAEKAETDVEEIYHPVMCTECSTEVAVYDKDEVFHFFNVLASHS
UniProt Q8N5C7: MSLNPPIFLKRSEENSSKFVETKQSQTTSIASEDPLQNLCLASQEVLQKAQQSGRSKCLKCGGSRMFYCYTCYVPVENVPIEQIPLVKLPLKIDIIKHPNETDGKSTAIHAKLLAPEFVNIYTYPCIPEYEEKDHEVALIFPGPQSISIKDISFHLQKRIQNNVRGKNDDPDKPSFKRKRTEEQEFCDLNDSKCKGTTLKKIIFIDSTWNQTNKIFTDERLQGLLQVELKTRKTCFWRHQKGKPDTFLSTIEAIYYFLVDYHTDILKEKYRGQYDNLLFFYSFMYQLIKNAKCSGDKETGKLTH
UniProt Q15125: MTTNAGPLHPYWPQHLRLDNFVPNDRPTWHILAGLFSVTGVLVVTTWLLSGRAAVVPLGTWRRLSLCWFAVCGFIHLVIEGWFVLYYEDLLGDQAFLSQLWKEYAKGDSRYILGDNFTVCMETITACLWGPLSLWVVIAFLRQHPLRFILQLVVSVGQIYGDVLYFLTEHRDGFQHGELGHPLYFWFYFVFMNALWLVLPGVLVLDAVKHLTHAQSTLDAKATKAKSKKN

Key:
Test in all cases: log2 fold change, soluble protein after heating vs DMSO (PISA); higher = thermal stabilisation; K562 lysate, 10 uM; active = over 0.2 and 3.5 SD of the protein, either way, in both replicates (recomputed)
alvocidib = compound: CN1CC[C@H](c2c(O)cc(O)c3c(=O)cc(-c4ccccc4Cl)oc23)[C@H](O)C1 [alvocidib]
Summary of the method: (§1)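 Log-two fold change in thermal stability relative to solvent controls is reported from duplicates. For each sample, crude K562 extract from dounce-homogenised pellets in PBS pH 7.4 with 1 mM MgCl2, at 1 mg/mL protein, was treated with 10 μM compound for 30 min. Aliquots heated for 3 min across 48°C-58°C were pooled, brought to 0.5% NP-40 at 4°C and cleared at 21,000xg for 90 min. The supernatant was quantified by TMTpro 16plex LC-MS/MS with channel sums equalised.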

Tubastatin A = compound: CN1CCc2c(c3ccccc3n2Cc2ccc(C(=O)NO)cc2)C1 [Tubastatin A]
Summary of the method: as §1

[1] = compound: CNC(=O)C1=CC=CC=C1NC2=NC(=NC=C2Cl)NC3=C(C=C(C=C3)N4CCOCC4)OC
Summary of the method: as §1

defactinib = compound: CNC(=O)c1ccc(Nc2ncc(C(F)(F)F)c(NCc3nccnc3N(C)S(C)(=O)=O)n2)cc1 [defactinib]
Summary of the method: as §1

[2] = compound: CNc1nc(-c2ccc3c(N)n[nH]c3c2)cc(N2C[C@@H](C(=O)NC3CCCCC3)CC[C@H]2C)n1
Summary of the method: as §1

encorafenib = compound: COC(=O)N[C@@H](C)CNc1nccc(-c2cn(C(C)C)nc2-c2cc(Cl)cc(NS(C)(=O)=O)c2F)n1 [encorafenib]
Summary of the method: as §1

[3] = compound: COC(=O)[C@H](CCSC)NC(=O)C1=C(C=C(C=C1)NC[C@H](CS)N)C2=CC=CC=C2
Summary of the method: as §1

alisertib = compound: COc1cc(Nc2ncc3c(n2)-c2ccc(Cl)cc2C(c2c(F)cccc2OC)=NC3)ccc1C(=O)O [alisertib]
Summary of the method: as §1

[4] = compound: COc1cc2nc(-c3cc(F)ccc3O)nc(N[C@@H]3CNC[C@H]3C(C)(C)O)c2cc1OC
Summary of the method: as §1

gefitinib = compound: COc1cc2ncnc(Nc3ccc(F)c(Cl)c3)c2cc1OCCCN1CCOCC1 [gefitinib]
Summary of the method: as §1

lapatinib = compound: CS(=O)(=O)CCNCc1ccc(-c2ccc3ncnc(Nc4ccc(OCc5cccc(F)c5)c(Cl)c4)c3c2)o1 [lapatinib]
Summary of the method: as §1

pictilisib = compound: CS(=O)(=O)N1CCN(Cc2cc3nc(-c4cccc5[nH]ncc45)nc(N4CCOCC4)c3s2)CC1 [pictilisib]
Summary of the method: as §1

crizotinib = compound: C[C@@H](Oc1cc(-c2cnn(C3CCNCC3)c2)cnc1N)c1c(Cl)ccc(F)c1Cl [crizotinib]
Summary of the method: as §1

[5] = compound: C[C@H](C1=CC=C(C=C1)C(=O)NC2=C3C=CNC3=NC=C2)N
Summary of the method: as §1

duvelisib = compound: C[C@H](Nc1ncnc2nc[nH]c12)c1cc2cccc(Cl)c2c(=O)n1-c1ccccc1 [duvelisib]
Summary of the method: as §1

gandotinib = compound: Cc1cc(Nc2cc(CN3CCOCC3)c3nc(C)c(Cc4ccc(Cl)cc4F)n3n2)n[nH]1 [gandotinib]
Summary of the method: as §1

tozasertib = compound: Cc1cc(Nc2cc(N3CCN(C)CC3)nc(Sc3ccc(NC(=O)C4CC4)cc3)n2)n[nH]1 [tozasertib]
Summary of the method: as §1

doramapimod = compound: Cc1ccc(-n2nc(C(C)(C)C)cc2NC(=O)Nc2ccc(OCCN3CCOCC3)c3ccccc23)cc1 [doramapimod]
Summary of the method: as §1

bafetinib = compound: Cc1ccc(NC(=O)c2ccc(CN3CC[C@H](N(C)C)C3)c(C(F)(F)F)c2)cc1Nc1nccc(-c2cncnc2)n1 [bafetinib]
Summary of the method: as §1

[6] = compound: Cc1cccc(CC(=O)N2CCc3c2ccc(-c2cn(C)c4ncnc(N)c24)c3F)n1
Summary of the method: as §1

Measured: log2 fold change

EEF1E1 (UniProt O43324)
inactive: alvocidib 0.026 | Tubastatin A -0.088 | [1] -0.037 | defactinib -0.018 | [2] -0.054 | encorafenib -0.017 | [3] 0.076 | alisertib 0.023 | [4] 0.014 | gefitinib -0.002 | lapatinib -0.04 | pictilisib -0.016 | crizotinib -0.046 | [5] -0.087 | duvelisib 0.004 | gandotinib -0.09 | tozasertib 0.038 | doramapimod 0 | bafetinib -0.018 | [6] 0.095

ECT2 (UniProt Q9H8V3)
inactive: alvocidib 0.016 | Tubastatin A 0.028 | [1] 0.081 | defactinib -0.073 | [2] 0.149 | encorafenib 0.074 | [3] 0.032 | alisertib 0.013 | [4] -0.05 | gefitinib 0.018 | lapatinib 0.067 | pictilisib -0.117 | crizotinib 0.069 | [5] -0.102 | duvelisib 0.014 | gandotinib 0.162 | tozasertib 0.115 | doramapimod 0.112 | bafetinib -0.075 | [6] 0.096

EARS2 (UniProt Q5JPH6)
inactive: alvocidib -0.08 | Tubastatin A -0.051 | [1] 0.043 | defactinib 0.037 | [2] 0.009 | encorafenib 0.026 | [3] -0.086 | alisertib 0.017 | [4] 0.016 | gefitinib 0.052 | lapatinib -0.04 | pictilisib -0.084 | crizotinib -0.026 | [5] -0.023 | duvelisib 0.037 | gandotinib 0.043 | tozasertib 0.127 | doramapimod 0.004 | bafetinib -0.006 | [6] 0.115

DUSP12 (UniProt Q9UNI6)
inactive: alvocidib -0.005 | Tubastatin A 0.019 | [1] 0.034 | defactinib -0.025 | [2] 0.032 | encorafenib 0.014 | [3] 0.01 | alisertib 0.008 | [4] -0.01 | gefitinib 0.031 | lapatinib -0.012 | pictilisib -0.026 | crizotinib -0.018 | [5] -0.041 | duvelisib -0.018 | gandotinib 0.013 | tozasertib -0.011 | doramapimod -0.008 | bafetinib 0.028 | [6] 0.013

DPYSL2 (UniProt Q16555)
inactive: alvocidib 0.041 | Tubastatin A -0.009 | [1] -0.003 | defactinib 0.006 | [2] 0.029 | encorafenib -0.051 | [3] 0.021 | alisertib -0.073 | [4] 0.028 | gefitinib 0.039 | lapatinib -0.021 | pictilisib -0.011 | crizotinib 0.018 | [5] -0.044 | duvelisib 0.013 | gandotinib 0.076 | tozasertib -0.045 | doramapimod 0.022 | bafetinib -0.003 | [6] 0.046

DUSP9 (UniProt Q99956)
inactive: alvocidib -0.054 | Tubastatin A -0.178 | [1] 0.012 | defactinib -0.222 | [2] -0.042 | encorafenib -0.024 | [3] 0.101 | alisertib 0.028 | [4] -0.101 | gefitinib 0.013 | lapatinib -0.062 | pictilisib 0.067 | crizotinib -0.094 | [5] 0.067 | duvelisib -0.043 | gandotinib -0.06 | tozasertib 0.031 | doramapimod 0.051 | bafetinib -0.036 | [6] 0.083

EHD2 (UniProt Q9NZN4)
inactive: alvocidib -0.012 | Tubastatin A -0.051 | [1] 0.055 | defactinib 0.032 | [2] -0.037 | encorafenib 0.001 | [3] 0.246 | alisertib -0.015 | [4] 0.071 | gefitinib -0.04 | lapatinib -0.047 | pictilisib -0.052 | crizotinib -0.033 | [5] 0.004 | duvelisib 0.026 | gandotinib -0.117 | tozasertib -0.004 | doramapimod 0.02 | bafetinib -0.063 | [6] 0.017

EEF1AKMT4 (UniProt P0DPD7)
inactive: alvocidib -0.029 | Tubastatin A -0.027 | [1] 0.074 | defactinib 0.03 | [2] 0.188 | encorafenib 0.042 | [3] 0.012 | alisertib 0.037 | [4] 0.068 | gefitinib 0.004 | lapatinib -0.052 | pictilisib 0.009 | crizotinib -0.012 | [5] -0.046 | duvelisib -0.038 | gandotinib 0.067 | tozasertib -0.072 | doramapimod -0.038 | bafetinib -0.171 | [6] 0.193

E2F3 (UniProt O00716)
inactive: alvocidib -0.049 | Tubastatin A -0.068 | [1] 0.038 | defactinib 0.053 | [2] -0.042 | encorafenib -0.034 | [3] -0.119 | alisertib 0.012 | [4] 0 | gefitinib 0.011 | lapatinib 0.048 | pictilisib 0.048 | crizotinib -0.109 | [5] 0 | duvelisib 0.099 | gandotinib 0.088 | tozasertib 0.085 | doramapimod 0.04 | bafetinib -0.098 | [6] 0.076

EEFSEC (UniProt P57772)
inactive: alvocidib -0.008 | Tubastatin A -0.157 | [1] 0.019 | defactinib 0.036 | [2] -0.017 | encorafenib 0.018 | [3] 0.098 | alisertib 0.019 | [4] 0 | gefitinib -0.012 | lapatinib -0.019 | pictilisib 0.008 | crizotinib -0.042 | [5] -0.043 | duvelisib 0.031 | gandotinib -0.023 | tozasertib 0.024 | doramapimod 0.022 | bafetinib -0.079 | [6] 0.041

DRG1 (UniProt Q9Y295)
inactive: alvocidib 0.012 | Tubastatin A 0.01 | [1] -0.015 | defactinib 0.013 | [2] 0.01 | encorafenib 0.002 | [3] -0.017 | alisertib 0.007 | [4] 0.013 | gefitinib -0.022 | lapatinib -0.008 | pictilisib -0.002 | crizotinib 0.013 | [5] 0.013 | duvelisib 0.006 | gandotinib -0.019 | tozasertib -0.041 | doramapimod -0.04 | bafetinib 0.021 | [6] -0.027

DPP8 (UniProt Q6V1X1)
inactive: alvocidib -0.066 | Tubastatin A -0.044 | [1] -0.025 | defactinib 0.024 | [2] -0.022 | encorafenib 0.01 | [3] -0.03 | alisertib -0.015 | [4] 0.051 | gefitinib -0.058 | lapatinib -0.113 | pictilisib -0.094 | crizotinib 0.042 | [5] -0.159 | duvelisib 0.012 | gandotinib -0.018 | tozasertib 0.076 | doramapimod 0.085 | bafetinib -0.081 | [6] 0.027

DPP7 (UniProt Q9UHL4)
inactive: alvocidib -0.014 | Tubastatin A 0.011 | [1] -0.032 | defactinib 0.028 | [2] 0.019 | encorafenib 0.008 | [3] -0.025 | alisertib -0.018 | [4] 0.026 | gefitinib 0.009 | lapatinib 0.013 | pictilisib -0.033 | crizotinib 0.008 | [5] 0.009 | duvelisib 0.021 | gandotinib -0.011 | tozasertib -0.032 | doramapimod -0.023 | bafetinib -0.011 | [6] 0.093

EAPP (UniProt Q56P03)
inactive: alvocidib 0.048 | Tubastatin A -0.025 | [1] 0.078 | defactinib -0.017 | [2] 0.107 | encorafenib -0.014 | [3] -0.053 | alisertib -0.042 | [4] 0.017 | gefitinib -0.03 | lapatinib -0.033 | pictilisib 0.058 | crizotinib 0 | [5] 0.03 | duvelisib 0.03 | gandotinib -0.157 | tozasertib -0.09 | doramapimod -0.058 | bafetinib 0.109 | [6] 0.128

4 consecutive records out of the list so far:
EEFSEC (UniProt P57772)
inactive: alvocidib -0.008 | Tubastatin A -0.157 | [1] 0.019 | defactinib 0.036 | [2] -0.017 | encorafenib 0.018 | [3] 0.098 | alisertib 0.019 | [4] 0 | gefitinib -0.012 | lapatinib -0.019 | pictilisib 0.008 | crizotinib -0.042 | [5] -0.043 | duvelisib 0.031 | gandotinib -0.023 | tozasertib 0.024 | doramapimod 0.022 | bafetinib -0.079 | [6] 0.041

DRG1 (UniProt Q9Y295)
inactive: alvocidib 0.012 | Tubastatin A 0.01 | [1] -0.015 | defactinib 0.013 | [2] 0.01 | encorafenib 0.002 | [3] -0.017 | alisertib 0.007 | [4] 0.013 | gefitinib -0.022 | lapatinib -0.008 | pictilisib -0.002 | crizotinib 0.013 | [5] 0.013 | duvelisib 0.006 | gandotinib -0.019 | tozasertib -0.041 | doramapimod -0.04 | bafetinib 0.021 | [6] -0.027

DPP8 (UniProt Q6V1X1)
inactive: alvocidib -0.066 | Tubastatin A -0.044 | [1] -0.025 | defactinib 0.024 | [2] -0.022 | encorafenib 0.01 | [3] -0.03 | alisertib -0.015 | [4] 0.051 | gefitinib -0.058 | lapatinib -0.113 | pictilisib -0.094 | crizotinib 0.042 | [5] -0.159 | duvelisib 0.012 | gandotinib -0.018 | tozasertib 0.076 | doramapimod 0.085 | bafetinib -0.081 | [6] 0.027

DPP7 (UniProt Q9UHL4)
inactive: alvocidib -0.014 | Tubastatin A 0.011 | [1] -0.032 | defactinib 0.028 | [2] 0.019 | encorafenib 0.008 | [3] -0.025 | alisertib -0.018 | [4] 0.026 | gefitinib 0.009 | lapatinib 0.013 | pictilisib -0.033 | crizotinib 0.008 | [5] 0.009 | duvelisib 0.021 | gandotinib -0.011 | tozasertib -0.032 | doramapimod -0.023 | bafetinib -0.011 | [6] 0.093

Next part:

DTWD1 (UniProt Q8N5C7)
inactive: alvocidib 0.041 | Tubastatin A -0.028 | [1] 0.011 | defactinib -0.032 | [2] 0.01 | encorafenib -0.044 | [3] -0.046 | alisertib 0 | [4] 0.005 | gefitinib -0.006 | lapatinib -0.049 | pictilisib -0.049 | crizotinib 0 | [5] 0.015 | duvelisib 0.06 | gandotinib -0.07 | tozasertib -0.075 | doramapimod 0.035 | bafetinib 0.002 | [6] 0.092

EBP (UniProt Q15125)
active: [2] 0.291 | [5] -0.269
inactive: alvocidib -0.003 | Tubastatin A 0.004 | [1] 0.087 | defactinib 0.028 | encorafenib 0.005 | [3] -0.016 | alisertib -0.036 | [4] 0.048 | gefitinib 0.04 | lapatinib -0.044 | pictilisib -0.004 | crizotinib 0.07 | duvelisib -0.093 | gandotinib 0.1 | tozasertib -0.016 | doramapimod -0.127 | bafetinib -0.011 | [6] 0
